From patent US20140005164A1, “WNT PATHWAY ANTAGONISTS” (Siena Biotech S.p.A., priority 2011, published 2014)
Some entries share one result that the patent states for a list of compounds. For at least one compound, name, drawing or mass did not settle the structure.

system: DBTRG-05MG glioblastoma cell line; assay: Renilla read out (TA-Renilla, Wnt-independent internal control for cell number and toxicity); assay type: cell-based; settings: TA-Renilla luciferase, 24 hours after compound addition

Structure (SMILES) | effect in the renilla read out
COCCOc1cc2c(cc1F)n(C)c(=O)n2C[C@H]1CC[C@H](c2nnc(-c3cnn(C)c3)o2)CC1 [Example 185] | negligible effect
COCCOc1ccc2c(c1)n(C[C@H]1CC[C@H](c3nnc(-c4cnn(C)c4)o3)CC1)c(=O)n2C [Example 147] | negligible effect
COc1ccc2c(c1)n(C[C@H]1CC[C@H](C(=O)Nc3ccncc3)CC1)c(=O)n2C [Example 29] | negligible effect
COCCOc1cc(NC(=O)[C@H]2CC[C@H](Cn3c(=O)n(C)c4ccc(Cl)cc43)CC2)ccn1 [Example 40] | negligible effect
COc1ccc2c(c1)n(C[C@H]1CC[C@H](C(=O)N3CCN(c4cc(C)nc(C)c4)CC3)CC1)c(=O)n2C [Example 94] | negligible effect
Cn1c(=O)n(C[C@H]2CC[C@H](C(=O)Nc3ccncc3)CC2)c2nc(Br)ccc21 [Example 116] | negligible effect
Cn1c(=O)n(C[C@H]2CC[C@H](C(=O)N3CCN(c4nccs4)CC3)CC2)c2c(Cl)cccc21 [Example 23] | negligible effect
COc1ccc2c(c1)n(C[C@H]1CC[C@H](C(=O)N3CCN(c4cnccn4)CC3)CC1)c(=O)n2C [Example 60] | negligible effect
COCCOc1ccc2c(n1)n(C[C@H]1CC[C@H](C(=O)Nc3ccncc3)CC1)c(=O)n2C [Example 150] | negligible effect
COCCOCCOc1ccc2c(c1)n(C[C@H]1CC[C@H](C(=O)Nc3ccncc3)CC1)c(=O)n2C [Example 129] | negligible effect
COc1cc2c(cc1F)n(C)c(=O)n2C[C@H]1CC[C@H](C(=O)N2CCOCC2)CC1 [Example 160] | negligible effect
COc1ccc2c(c1)n(C[C@H]1CC[C@H](C(=O)N3CCC(C(C)=O)CC3)CC1)c(=O)n2C [Example 81] | negligible effect
COc1cc2c(cc1F)n(C)c(=O)n2C[C@H]1CC[C@H](C(=O)N2CCN(c3ncccn3)CC2)CC1 [Example 178] | negligible effect
COc1ccc2c(c1)n(C[C@H]1CC[C@H](C(=O)N3CCN(c4ncccn4)CC3)CC1)c(=O)n2C [Example 2, 5-Methoxy-1-methyl-3-[trans-4-(4-pyrimidin-2-yl-piperazine-1-carbonyl)-cyclohexylmethyl]-1,3-dihydro-benzoimidazol-2-one] | negligible effect
COc1ccc2c(c1)n(C[C@H]1CC[C@H](C(=O)N3CCSCC3)CC1)c(=O)n2C [Example 62] | negligible effect
COc1cc2c(cc1F)n(C)c(=O)n2C[C@H]1CC[C@H](C(=O)N2C[C@@H](C)O[C@@H](C)C2)CC1 [Example 179] | negligible effect
COc1ccc2c(c1)n(C[C@H]1CC[C@H](c3cc(-c4cnn(C)c4)n[nH]3)CC1)c(=O)n2C [Example 153] | negligible effect
COc1ccc2c(c1)n(C[C@H]1CC[C@H](C(=O)N3CCN(c4cccc(C(F)(F)F)n4)CC3)CC1)c(=O)n2C [Example 87] | negligible effect
COc1ccc2c(c1)n(C[C@H]1CC[C@H](C(=O)N3CCN(c4ccc(C(F)(F)F)nc4)CC3)CC1)c(=O)n2C [Example 90] | negligible effect
COc1ccc2c(c1)n(C[C@H]1CC[C@H](c3nnc(-c4ccn(C)n4)o3)CC1)c(=O)n2C [Example 110] | negligible effect
Cn1c(=O)n(C[C@H]2CC[C@H](C(=O)N3CCN(c4ccncc4)CC3)CC2)c2cc(C(F)(F)F)ccc21 [Example 73] | negligible effect
COc1ccc2c(c1)n(C[C@H]1CC[C@H](C(=O)Nc3ccnc(C)c3)CC1)c(=O)n2C [Example 33] | negligible effect
Cn1c(=O)n(C[C@H]2CC[C@H](C(=O)Nc3ccncc3)CC2)c2nc(C3CC3)ccc21 [Example 170] | negligible effect

Structure (SMILES) | effect in the renilla read out
COc1ccc2c(c1)n(C[C@H]1CC[C@H](C(=O)N3CC4CCC(C3)O4)CC1)c(=O)n2C [Example 63] | negligible effect
COc1ccc2c(c1)n(C[C@H]1CC[C@H](c3nnc(-c4ccncc4F)o3)CC1)c(=O)n2C [Example 109] | negligible effect
COc1ccc2c(c1)n(C[C@H]1CC[C@H](C(=O)N3CCN(c4nccs4)CC3)CC1)c(=O)n2C [Example 27] | negligible effect
COc1ccc2c(c1)n(C[C@H]1CC[C@H](C(=O)N3CCN(c4ccc(C)nc4)CC3)CC1)c(=O)n2C [Example 93] | negligible effect
COc1ccc2c(c1)n(C[C@H]1CC[C@H](C(=O)Nc3ccncc3C)CC1)c(=O)n2C [Example 30] | negligible effect
COc1cc(NC(=O)[C@H]2CC[C@H](Cn3c(=O)n(C)c4ccc(Cl)cc43)CC2)ccn1 [Example 52] | negligible effect
COc1ccc2c(c1)n(C[C@H]1CC[C@H](c3nnc(-c4ccncn4)o3)CC1)c(=O)n2C [Example 117] | negligible effect
CONC(=O)C1CCN(C(=O)[C@H]2CC[C@H](Cn3c(=O)n(C)c4ccc(OC)cc43)CC2)CC1 [Example 85] | negligible effect
COc1ccc2c(c1)n(C[C@H]1CC[C@H](C(=O)N3CCN(c4ccncc4)CC3)CC1)c(=O)n2C [Example 76] | negligible effect
Cn1c(=O)n(C[C@H]2CC[C@H](C(=O)Nc3ccncc3)CC2)c2cc(C(F)(F)F)ccc21 [Example 22] | negligible effect
Cn1c(=O)n(C[C@H]2CC[C@H](C(=O)N3CCN(c4cnccn4)CC3)CC2)c2cc(C#N)ccc21 [Example 155] | negligible effect
COc1ccc2c(n1)n(C[C@H]1CC[C@H](C(=O)N3CCN(c4ncccn4)CC3)CC1)c(=O)n2C [Example 26] | negligible effect
COc1ccc2c(c1)n(C[C@H]1CC[C@H](C(=O)Nc3cccc4oc(C5CC5)nc34)CC1)c(=O)n2C [Example 67] | negligible effect
CCOCc1nnc([C@H]2CC[C@H](Cn3c(=O)n(C)c4ccc(OC)cc43)CC2)o1 [Example 107] | negligible effect
Cn1c(=O)n(C[C@H]2CC[C@H](C(=O)Nc3ccnnc3)CC2)c2[nH]c(=O)ccc21 [Example 9, Trans-4-(1-Methyl-2,5-dioxo-1,2,4,5-tetrahydro-imidazo[4,5-b]pyridin-3-ylmethyl)-cyclohexanecarboxylic acid pyridazin-4-ylamide] | negligible effect
COc1ccc2c(c1)n(C[C@H]1CC[C@H](C(=O)N3CCN(C(=O)[C@@H]4CCC(=O)O4)CC3)CC1)c(=O)n2C [Example 74] | negligible effect
COc1cc2c(cc1F)n(C)c(=O)n2C[C@H]1CC[C@H](C(=O)Nc2ccnnc2)CC1 [Example 169] | negligible effect
Cn1c(=O)n(C[C@H]2CC[C@H](C(=O)Nc3ccncc3)CC2)c2nc(OCC#N)ccc21 [Example 167] | negligible effect
Cn1ccc(N2CCN(C(=O)[C@H]3CC[C@H](Cn4c(=O)n(C)c5ccc(=O)[nH]c54)CC3)CC2)n1 [Example 134] | negligible effect
COCCOc1ccc2c(c1)n(C[C@H]1CC[C@H](C(=O)N3CCN(C(C)=O)CC3)CC1)c(=O)n2C [Example 71] | negligible effect
COc1ccc(-c2nc([C@H]3CC[C@H](Cn4c(=O)n(C)c5ccc(OC)cc54)CC3)no2)cc1 [Example 18, 5-Methoxy-3-{trans-4-[5-(4-methoxy-phenyl)[1,2,4]oxadiazol-3-yl]-cyclohexylmethyl}-1-methyl-1,3-dihydro-benzoimidazol-2-one] | negligible effect
Cn1cc(C2=CCN(C(=O)[C@H]3CC[C@H](Cn4c(=O)n(C)c5ccc(=O)[nH]c54)CC3)CC2)cn1 [Example 135] | negligible effect
Cn1c(=O)n(C[C@H]2CC[C@H](C(=O)Nc3ccncc3)CC2)c2cc(OCCF)ccc21 [Example 137] | negligible effect
